Results deposited as PubChem BioAssay AID1259254 (NCATS, 2017).

Test: 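Gene knock-downs that lead to re-replication, shown by excess G2 DNA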 (primary screen)
Cell system: human HCT116 colorectal cancer cells
Reagent: single siRNA against human genes
Timing: 3 days
Measured: 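Imaged Hoechst DNA stain sorts each cell into a cycle phase by DNA amount; per plate, G2 fraction set to 0% for non-targeting and 100% for GMNN siRNA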
Reading the numbers: G2 robust z-score: higher = more G2 cells, more excess DNA replication
Active means: 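Active siRNAs have a G2 robust z of 5 or more median absolute deviations over the median, which in these data means about 38% or higher of GMNN control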
The deposit covers about 59,000 reagents; below is a part drawn at random. Of all reagents, about 1,550 (2.6%) were called active. 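G2 share is only a proxy for re-replication; each gene was hit by three separate siRNAs, and active genes were retested.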 The numbers tell different reagents against one gene apart. Further read-outs or replicates are left out here. Not stated in the record: the amount of reagent.

ZNF785 #1
- G2 robust z-score: -0.862
- activity call: inactive

ZNF785 #2
- G2 robust z-score: 0.846
- activity call: inactive

ZNF785 #3
- G2 robust z-score: 0.0873
- activity call: inactive

ALKBH8 #1
- G2 robust z-score: 2.24
- activity call: inactive

ALKBH8 #2
- G2 robust z-score: 0.183
- activity call: inactive

ALKBH8 #3
- G2 robust z-score: -0.117
- activity call: inactive

PLEKHA6 #1
- G2 robust z-score: -0.762
- activity call: inactive

PLEKHA6 #2
- G2 robust z-score: -0.243
- activity call: inactive

PLEKHA6 #3
- G2 robust z-score: -0.499
- activity call: inactive

MLLT1 #1
- G2 robust z-score: 0.153
- activity call: inactive

MLLT1 #2
- G2 robust z-score: -0.0704
- activity call: inactive

MLLT1 #3
- G2 robust z-score: 0.453
- activity call: inactive
